Strings that start with PEPTIDE1 are HELM notation: dots part the residues, brackets hold end groups and non-standard residues.
Assay: Fmoc solid-phase peptide synthesis; H-Rink-Amide ChemMatrix resin (loading 0.52 mmol/g); DIC/OxymaPure
Conditions: whole synthesis, 220 nm, scale 0.05 mmol

Substance | final HPLC purity [%]
PEPTIDE1{[Dab].[NhPhe].[Dab].[NhPhe].[Dab].[NhPhe].[Dab].[NhPhe].[Dab].[NhPhe].[Dab].[NhPhe].[am]}$$$$V2.0 | 98.98
PEPTIDE1{[Orn].[NPhe].[Orn].[NPhe].[Orn].[NPhe].[Orn].[NPhe].[Orn].[NPhe].[Orn].[NPhe].[am]}$$$$V2.0 | 86.54
PEPTIDE1{[Dab].[NPhe].[Dab].[NPhe].[Dab].[NPhe].[Dab].[NPhe].[Dab].[NPhe].[Dab].[NPhe].[am]}$$$$V2.0 | 95.2

Reference: article PMC6943742 (Molecules, 2019)
